From patent US7812014B2, “Bicyclic 6-alkylidene-penems as β-lactamase inhibitors” (priority 2002, dated 2010)
Structures can show the parent of a compound that is named as a salt.

System: Clinical isolates that have been adapted to cause infection in mice
Assay: In vivo antibacterial protection, 7 day survival of infected mice
Parameters: species or system mice strain CD-1
Details: Mus musculus, 168 h, read-out: ED50 mg/kg
Text: In Vivo Antibacterial Protection
Female mice strain CD-1, approximately 18-22 grams, were received from Charles River Laboratories and quarantined 7 days prior to use. In addition, mice may be rendered neutropenic using cytoxan.
Clinical isolates that have been adapted to cause infection in mice, are used in the experiment, including infections with strains of E. coli, K. pneumoniae, M. morganii, E. cloacae, S. marcescens, C. freundii, staphylococci, streptococci, P. aeruginosa and N. gonorrhoeae.
Mice are challenged by injecting 0.5 ml intraperitoneally or 0.05 ml intranasally of a predetermined bacterial inoculum suspended in broth, saline or hog gastric mucin (supplemented with dried bovine hemoglobin for N. gonorrhoeae). […] Antibacterial doses (dose concentration prepared by two fold serial dilutions of the antibiotic) are dissolved or suspended in 0.2% aqueous agar or methocel, phosphate buffered saline or an adjuvant are administered orally, subcutaneously or intravenously in the following manner: • a) Orally or subcutaneously: Dose volume of 0.5 ml administered ½ hr after infection. […]
The protective effects of the antibacterial agent(s) are measured by the survival of the infected untreated as compared to the treated animals. […]

In the case of `O=C(O)C1=CS[C@@H]2/C(=C\c3cc4n(n3)CCC4)C(=O)N12` [Example 8, (5R),(6Z)-6-(5,6-Dihydro-4H-pyrrolo[1,2-b]pyrazol-2-ylmethylene)-7-oxo-4-thia-1-azabicyclo[3.2.0]hept-2-ene-2-carboxylic acid, sodium salt], the ED50 is reported as 18.9 mg/kg.
